# Test results: the supplement of paper PMC11732987, “Enantioselective OTUD7B fragment discovery through chemoproteomics screening and high-throughput optimisation” (Communications Chemistry, 2025)
# The list shows a part of the results. The data scatter; read single values as rough.
# Assays:
# [1] = compound: ClCC(=O)N[C@@H]1CCCc2ccccc12; assay: log2 mean competition ratio of IA-DTB cysteine labelling (DMSO/compound) (log2 ratio); higher = stronger cysteine engagement by compound; conditions: treatment time: 4 h, cell line lysate: HEK293T
# Method: (§1)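 IA-DTB competitive cysteine chemoproteomics in HEK293T RIPA lysate. Lysates were treated with compound 29 or 30 at 50 or 200 µM for 4 h, then IA-DTB (500 µM, 1 h), trypsin-digested, NeutrAvidin-enriched and analysed by diaPASEF. Competition ratio = intensity DMSO / intensity compound (n=4 treated, n=64 DMSO); binding: mean log2 CR ≥ 1 and p ≤ 0.05 plus QC filters. Target is the cysteine site.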
# [2] = compound: ClCC(=O)N[C@H]1CCCc2ccccc12; assay: as above; conditions: treatment time: 4 h, cell line lysate: HEK293T
# Method: as §1
Target,log2 mean competition ratio ([1]; 50 µM),log2 mean competition ratio ([1]; 200 µM),log2 mean competition ratio ([2]; 50 µM),log2 mean competition ratio ([2]; 200 µM)
DENND4C C1045 (UniProt Q5VZ89),-0.0416,0.0636,–,–
DNMBP C1134 (UniProt Q6XZF7),0.298,0.0961,–,–
DPAGT1 C42 (UniProt Q9H3H5),-0.173,-0.257,–,–
DIXDC1 C217,-0.046,-0.164,-0.0635,-0.155
DOCK1 C1254 (UniProt Q14185),0.0597,0.00743,-0.909,-0.0761
DNAJC13 C884 (UniProt O75165),-0.132,0.0967,-0.125,-0.0782
DOCK7 C608 (UniProt Q96N67),-0.22,-0.225,-0.068,-0.0795
DENND4C C1903 (UniProt Q5VZ89),0.48,-0.169,0.159,-0.24
DNMT3A C387 (UniProt Q9Y6K1),0.128,0.192,-0.375,-0.00563
DEPTOR C247,0.224,-0.169,0.153,0.13
DNAJC14 C422 (UniProt Q6Y2X3),-0.127,0.062,-0.356,0.00904
DHX36 C261 (UniProt Q9H2U1),-0.186,-0.146,0.298,0.0893
DISC1 C239,0.0131,-0.0697,-0.399,0.202
DNAJC14 C52 (UniProt Q6Y2X3),-0.0999,-0.107,-0.0398,-0.0336
DHX29 C784 (UniProt Q7Z478),-0.23,0.0227,0.0301,0.0859
DICER1 C1406 (UniProt Q9UPY3),-0.19,-0.243,0.326,-0.107
DHX30 C346 (UniProt Q7L2E3),-0.158,0.48,-0.222,0.381
DNPEP C337,0.252,0.0578,0.109,-0.158
DOCK8 C2091 (UniProt Q8NF50),0.0444,0.26,-0.244,-0.00117
DNA2 C569 (UniProt P51530),-0.223,-0.25,-0.107,0.0193
DNAJC6 C128 (UniProt O75061),0.0314,0.126,-0.187,-0.0647

# Quoted from the listing:
# DNAJC6 C128 (UniProt O75061) | log2 mean competition ratio ([1]; 50 µM): 0.0314
# DOCK7 C608 (UniProt Q96N67) | log2 mean competition ratio ([1]; 200 µM): -0.225
# DHX30 C346 (UniProt Q7L2E3) | log2 mean competition ratio ([2]; 50 µM): -0.222

# Next entries:

Target,log2 mean competition ratio ([1]; 50 µM),log2 mean competition ratio ([1]; 200 µM),log2 mean competition ratio ([2]; 50 µM),log2 mean competition ratio ([2]; 200 µM)
DGCR8 C657 (UniProt Q8WYQ5),-0.0159,-0.247,0.489,0.239
DHX29 C1245 (UniProt Q7Z478),0.0277,-0.103,-0.206,-0.0839
DPYSL4 C90,0.0327,0.394,0.461,0.28
DHCR24 C252 (UniProt Q15392),-0.00836,-0.178,0.584,-0.135
DLG5 C1207 (UniProt Q8TDM6),0.0907,-0.0558,0.0858,-0.076
DICER1 C214 (UniProt Q9UPY3),-0.0417,-0.246,-0.409,-0.0569
DICER1 C1122 (UniProt Q9UPY3),-0.259,0.275,0.0748,0.247
DNAJC1 C380 (UniProt Q96KC8),-0.00169,-0.26,0.109,-0.187
DIAPH3 C1125 (UniProt Q9NSV4),0.179,0.158,0.424,0.1
DIAPH3 C195 (UniProt Q9NSV4),0.398,0.254,0.372,0.273
DEPDC1B C59 (UniProt Q8WUY9),0.134,-0.22,-0.254,-0.0581
DIPK2A C170 (UniProt Q8NDZ4),0.175,0.773,-0.182,0.411
DHX40 C153 (UniProt Q8IX18),0.149,0.536,0.137,0.494
DIPK2A C126 (UniProt Q8NDZ4),-0.0799,0.357,-0.181,0.376
DNA2 C478 (UniProt P51530),0.105,0.148,-0.369,-0.143
DNAJC13 C12 (UniProt O75165),-0.0624,-0.522,0.0295,-0.289
DNAAF2 C673 (UniProt Q9NVR5),-0.0972,-0.0412,-0.212,-0.0721
DNAJC10 C270 (UniProt Q8IXB1),0.0121,0.108,0.0844,0.191
DNAJC11 C38 (UniProt Q9NVH1),0.173,-1.76,-0.209,-0.287
DHX33 C190 (UniProt Q9H6R0),-0.195,0.227,-0.362,-0.0677
DHX36 C135 (UniProt Q9H2U1),-0.00739,-0.103,-0.138,-0.142
